Assay results as given in paper PMC8040806.

T1: Gcn20-TAP (S. cerevisiae) (UniProt P43535)
T1 sequence: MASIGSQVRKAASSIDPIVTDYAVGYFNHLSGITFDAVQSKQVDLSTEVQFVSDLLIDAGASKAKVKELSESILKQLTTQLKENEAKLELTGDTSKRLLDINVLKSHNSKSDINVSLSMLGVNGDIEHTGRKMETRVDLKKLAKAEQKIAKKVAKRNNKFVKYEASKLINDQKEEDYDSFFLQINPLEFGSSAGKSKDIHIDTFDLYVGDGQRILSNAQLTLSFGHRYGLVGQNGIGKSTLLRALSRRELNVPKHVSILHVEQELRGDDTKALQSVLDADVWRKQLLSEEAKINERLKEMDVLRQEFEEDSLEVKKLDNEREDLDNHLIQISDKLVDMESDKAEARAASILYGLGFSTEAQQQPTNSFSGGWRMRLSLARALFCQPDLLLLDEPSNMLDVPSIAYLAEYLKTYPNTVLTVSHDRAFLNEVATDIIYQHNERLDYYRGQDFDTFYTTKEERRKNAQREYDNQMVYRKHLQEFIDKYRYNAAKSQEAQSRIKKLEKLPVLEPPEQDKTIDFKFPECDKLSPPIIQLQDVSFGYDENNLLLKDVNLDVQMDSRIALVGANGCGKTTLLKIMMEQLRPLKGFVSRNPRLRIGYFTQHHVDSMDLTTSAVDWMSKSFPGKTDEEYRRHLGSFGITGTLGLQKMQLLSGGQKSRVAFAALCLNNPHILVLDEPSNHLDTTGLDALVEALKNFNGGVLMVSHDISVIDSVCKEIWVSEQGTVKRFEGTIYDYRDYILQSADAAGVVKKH

B1: ribosome binding GTPase 2 (Rbg2) (protein, UniProt P53295 1-368)
chain: MGIIDKIKAIEEEMARTQKNKATEHHLGLLKGKLARYRQQLLADEAGSGGGGGSGFEVAKSGDARVVLIGYPSVGKSSLLGKITTTKSEIAHYAFTTLTSVPGVLKYQGAEIQIVDLPGIIYGASQGKGRGRQVVATARTADLVLMVLDATKSEHQRASLEKELENVGIRLNKEKPNIYYKKKETGGVKVTFTSPPKTNLTEQAIKMILRDYRIHNAEVLVRDDQCTIDDFIDVINEQHRNYVKCLYVYNKIDAVSLEEVDKLAREPNTVVMSCEMDLGLQDVVEEIWYQLNLSRVYTKKRGVRPVFDDPLVVRNNSTIGDLCHGIHRDFKDKFKYALVWGSSAKHSPQKCGLNHRIDDEDVVSLFAK

Target: T1, Gcn20-TAP (S. cerevisiae)
Experiment: affinity purification with mass spectrometry; TAP-tag in vivo pull-out from cleared lysate of the GCN20-TAP strain on IgG-coated magnetic Dynabeads, 1 h at 4 °C; eluted with AcTEV protease 2 h at 17 °C in 20 mM Hepes pH 7.4, 100 mM KOAc, 10 mM Mg(OAc)2, 1 mM DTT, 1 mM ADPNP; analysed by SDS-PAGE, immunoblot and mass spectrometry; cells with and without 3-AT

Row | Molecule | binding
1 | eIF5A | binds
2 | B1 | binds

Results are given in words; binding and its absence hold for the method and conditions named. In cells and extracts the contact can be indirect. These calls come from enrichment with a bait or labelling near it, and not all partners need be listed.
